Source: patent publication US11344578B2, “Immune cells expressing engineered antigen receptors” (Board of Regents, The University of Texas System, priority 2017, dated 2022)
At least one structure is not confirmed: it was looked up by name or label, or the drawing left a doubt.

Test system: CAR-transduced NK cells
Test: Dexamethasone killing of CAR-transduced NK cells, Annexin V staining
Type: cell-based

Q: How did the cell death (500 μM dexamethasone, 24 hours) turn out when `C[C@@H]1C[C@H]2[C@@H]3CCC4=CC(=O)C=C[C@]4(C)[C@@]3(F)[C@@H](O)C[C@]2(C)[C@@]1(O)C(=O)CO` [dexamethasone] was run?
A: all cells were dead

Q: And the “sensitivity of NK cells to dexamethasone killing” value (NK cells from 3 donors, 4 and 24 hours, different doses, Annexin V)?
A: sensitive
